Molecules are shown by their SMILES. “Also recorded” adds a separate entry of the source.

The series deals with Pseudomonas CH07. Briefly: Degradation of PCB congeners of Clophen A-50 by Pseudomonas CH07 in seawater nutrient broth, GC-ECD analysis. The following applies: for Degradation by Pseudomonas CH07 (in words): congeners present in Clophen A-50, marine condition; for Conc. of PCBs in Control: control without the organism, Clophen A-50 100 ppm in seawater nutrient broth, room temperature. The procedure: A defined seawater nutrient broth medium (code no. 088 from Himedia, Bombay) containing beef extract 3 g L^−1, peptic digest of animal tissue 5 g L^−1 was used. One liter of medium contained 500 ml seawater and 500 ml distilled water and the final pH was adjusted to 7 using 0.1 N NaOH. After autoclaving, the required amount of stock solution (10,000 ppm) of Clophen A-50 was added to the medium in sterile condition to achieve a final concentration of 100 ppm. Immediately after adding the stock PCBs solution, the hexane part of it was evaporated out by gently swirling the flask in sterile condition and sterile glycerol was added to the medium in a 1:1 ratio of stock solution:glycerol. 40 μl of 24 hold culture of Pseudomonas CH07 growths was added in two replicates of 20 ml of test (seawater nutrient broth+Clophen A-50) medium to seawater nutrient broth (without any addition of Clophen A-50). Controls in duplicate were also maintained without the addition of the organism at room temperature (ca. 28°±2° C.). Control and test cultures were maintained at room temperature for two days and at various predecided intervals of time, the samples was taken out aseptically and prepared for GC analysis. The details of the sample preparation is described below.
The PCBs were analyzed following the method described by Boon et al. The method was standardized in our laboratory using the PCBs standards obtained from Promochem, Germany as well as other analytical grade chemicals from E. Merck. The purity of the solvents was checked by Gas chromatography for each of the bottles. The different adsorbents, alumina, silica, were purified by soxhlet extraction with di-chloro-methane (HPLC grade) for about eight hours. The anhydrous Na2SO4 and the glass wool were also purified by Soxhlet extraction with HPLC grade di-chloro methane. The different steps of the analytical methods are illustrated below:
i. Aliquot of 1 ml sample was treated with 1 ml n-hexane (HPLC grade) thrice and thoroughly mixed by a vortex mixture for five minutes each time. The upper part of the solvent layer (solvent extract) was separated with the help of micropipette and transferred to a sterilized glass tube.
ii. Concentrate the solvent extract to 1 ml by evaporation with Snyder column evaporator on a water bath at 85° C.
iii. Purify of the solvent extract by alumina clean up using micro-column technique.
iv. Concentrate the solvent extract to 1 ml by evaporation with Snyder column evaporator on a water bath at 85° C.
v. Isolate PCBs from polar chlorinated compounds by eluting through micro-column of silica.
vi. Concentrate the PCBs fraction to 1 ml by evaporation with Snyder column evaporator on a water bath at 85° C.
vii. Analyze the aliquot by GC-ECD with reference to standard PCBs (individual congeners).
The samples were analyzed by gas chromatography (Varian GC-3380) coupled with an electron capture detector and an autosampler 8200. Capillary column VA-5 (30 m×0.25 mm) was employed with electron capture detector […] for peak detection. Argon with 5% methane was the carrier gas. A temperature program was used (table. 3). […] The experimental condition of the instrument is illustrated in the table-4. The analysis of PCBs was calibrated using the standards for individual congeners of PCBs obtained from Promochem, Germany. Using different dilutions of the stock solution of the standards carried out the calibration of each of the individual congeners. The linearity of the calibration curve was determined with a range of dilution of the mix-standards.

Consider `Clc1ccc(-c2ccc(Cl)c(Cl)c2)cc1Cl` [CB-77, 3,3′,4,4′-tetrachlorobiphenyl], for which the “Conc. of PCBs in Control” value came to 53.37 ng/mL. The “Degradation by Pseudomonas CH07 (in words)” value (“Degradation … (in words)” for short) (listed as 3,3′,4,4′-tetrachlorobiphenyl) was “degraded very substantially”. Moreover, where the note is “listed as cb-77”, the “Degradation … (in words)” value is given as “capable of degrading”.
For `Clc1cc(Cl)c(-c2cccc(Cl)c2Cl)cc1Cl` [CB-97, 2,2′,3′,4,5-Pentachloro], the “Degradation … (in words)” value is “capable of degrading” and the “Conc. of PCBs in Control” value was 8.17 ng/mL.
On to `Clc1ccc(Cl)c(-c2cc(Cl)c(Cl)cc2Cl)c1` [CB-101, 2,2′,4,5,5′-Pentachloro], for which the “Degradation … (in words)” value is recorded as “capable of degrading” and the “Conc. of PCBs in Control” value amounted to 18.17 ng/mL.
`Clc1ccc(-c2ccc(Cl)c(Cl)c2Cl)cc1Cl` [CB-105, 2,3,3′,4,4′-Pentachloro]: the “Conc. of PCBs in Control” value is 17.54 ng/mL.
The same measure, in the same setting: the result for `Clc1c(Cl)c(Cl)c(-c2ccccc2)c(Cl)c1Cl` [CB-116, 2,3,4,5,6-Pentachloro] reads 10.09 ng/mL; that for `Clc1ccc(-c2cc(Cl)c(Cl)cc2Cl)cc1Cl` [CB-118, 2,3′,4,4′,5-Pentachloro], 1.31 ng/mL; that for `Clc1cc(Cl)c(-c2ccc(Cl)c(Cl)c2)c(Cl)c1` [CB-119, 2,3′,4,4′,6-Pentachloro], 8.07 ng/mL.
In the case of `Clc1ccc(-c2cc(Cl)c(Cl)c(Cl)c2)cc1Cl` [CB-126, 3,3′,4,4′,5-Pentachloro], the “Degradation … (in words)” value is “completely degraded” and the “Conc. of PCBs in Control” value was determined as 2.75 ng/mL. The “Time to complete degradation” value (congener in Clophen A-50, Pseudomonas CH07) is on record as “about 40 hours”. Besides, the “Degradation … (in words)” value (listed as cb-126) is “capable of degrading”.
In the case of `Clc1ccc(-c2ccc(Cl)c(Cl)c2Cl)c(Cl)c1Cl` [CB-128, 2,2′,3,3′,4,4′-Hexachloro], the “Degradation … (in words)” value is given as “capable of degrading” and the “Conc. of PCBs in Control” value worked out at 5.02 ng/mL.
On to `Clc1cc(Cl)c(-c2ccc(Cl)c(Cl)c2Cl)cc1Cl` [CB-138, 2,2′,3,4,4′,5′-Hexachloro], for which the “Degradation … (in words)” value is “capable of degrading” and the “Conc. of PCBs in Control” value was determined as 1.62 ng/mL.
As for `Clc1ccc(Cl)c(-c2cc(Cl)c(Cl)c(Cl)c2Cl)c1` [CB-141, 2,2′,3,4,5,5′-Hexachloro], the “Degradation … (in words)” value was “capable of degrading” and the “Conc. of PCBs in Control” value came out at 3.57 ng/mL.
Regarding `Clc1ccc(Cl)c(-c2c(Cl)c(Cl)cc(Cl)c2Cl)c1` [CB-151, 2,2′,3,5,5′,6-Hexachloro], the “Degradation … (in words)” value is recorded as “are degraded” and the “Conc. of PCBs in Control” value is 2.04 ng/mL.
In the case of `Clc1cc(Cl)c(-c2cc(Cl)c(Cl)c(Cl)c2Cl)cc1Cl` [CB-180, 2,2′,3,4,4′,5,5′-Heptachloro], the “Degradation … (in words)” value is recorded as “degraded sufficiently” and the “Conc. of PCBs in Control” value was 1.64 ng/mL. The “Degradation … (in words)” value (listed as cb-180) was “capable of degrading”.
In the case of `Clc1ccc(-c2c(Cl)c(Cl)c(Cl)c(Cl)c2Cl)c(Cl)c1` [CB-181, 2,2′,3,4,4′,5,6-Heptachloro], the “Degradation … (in words)” value is given as “degraded sufficiently; also recorded: completely degraded” and the “Conc. of PCBs in Control” value is 2.87 ng/mL. The “Degradation … (in words)” value (listed as cb-181) is given as “are degraded”.
